At least one result comes from cells or an extract, where the contact may be indirect. For some of these results: Negatives hold for the conditions tested. For some of these results: Construct, isoform or probe ends are uncertain for at least one entry.
Legend:
Assay in all cases: biotin-streptavidin pull-down
[1] = molecular target: Nucleolin (NCL), endogenous, HeLa (UniProt P19338); conditions: HeLa; protein in an extract; single-stranded DNA
[2] = molecular target: Nucleolin (NCL), endogenous, RA-FLS (UniProt P19338); conditions: RA-FLS, 1 uM, 8 h; protein in an extract
[3] = molecular target: Nucleolin (NCL), endogenous, U-2 OS (UniProt P19338); conditions: U-2 OS, 8 h; protein in an extract; single-stranded DNA
[4] = molecular target: VEGFR-2, endogenous, RA-FLS (UniProt P35968); conditions: RA-FLS, 1 uM, 8 h; protein in an extract
[5] = molecular target: c-Met, endogenous, HeLa (UniProt P08581); conditions: HeLa; protein in an extract; single-stranded DNA
[6] = molecular target: c-Met, endogenous, U-2 OS (UniProt P08581); conditions: U-2 OS; protein in an extract; single-stranded DNA

Amino acid sequences for entries named in this document (tags omitted). Residues count along the entry.
UniProt P19338, 2-710: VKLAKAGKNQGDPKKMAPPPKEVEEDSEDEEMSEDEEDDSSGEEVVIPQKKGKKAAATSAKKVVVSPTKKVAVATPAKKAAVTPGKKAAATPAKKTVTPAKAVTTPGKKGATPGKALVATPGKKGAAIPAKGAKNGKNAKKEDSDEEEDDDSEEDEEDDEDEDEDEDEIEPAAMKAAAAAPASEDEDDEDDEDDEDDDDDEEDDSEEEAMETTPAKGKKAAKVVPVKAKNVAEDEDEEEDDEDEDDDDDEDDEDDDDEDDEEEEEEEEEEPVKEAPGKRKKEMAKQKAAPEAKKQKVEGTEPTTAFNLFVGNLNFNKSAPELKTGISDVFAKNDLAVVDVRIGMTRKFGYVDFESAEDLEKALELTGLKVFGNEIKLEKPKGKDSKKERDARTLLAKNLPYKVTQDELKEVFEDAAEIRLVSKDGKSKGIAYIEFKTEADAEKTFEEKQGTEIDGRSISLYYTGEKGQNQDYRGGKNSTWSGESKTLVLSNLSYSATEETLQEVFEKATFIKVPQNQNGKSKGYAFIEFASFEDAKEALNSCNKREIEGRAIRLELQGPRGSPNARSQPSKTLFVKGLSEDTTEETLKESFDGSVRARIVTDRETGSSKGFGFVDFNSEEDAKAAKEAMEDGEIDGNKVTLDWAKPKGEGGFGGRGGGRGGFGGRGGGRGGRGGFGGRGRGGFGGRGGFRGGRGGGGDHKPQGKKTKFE
UniProt P35968, 20-1356: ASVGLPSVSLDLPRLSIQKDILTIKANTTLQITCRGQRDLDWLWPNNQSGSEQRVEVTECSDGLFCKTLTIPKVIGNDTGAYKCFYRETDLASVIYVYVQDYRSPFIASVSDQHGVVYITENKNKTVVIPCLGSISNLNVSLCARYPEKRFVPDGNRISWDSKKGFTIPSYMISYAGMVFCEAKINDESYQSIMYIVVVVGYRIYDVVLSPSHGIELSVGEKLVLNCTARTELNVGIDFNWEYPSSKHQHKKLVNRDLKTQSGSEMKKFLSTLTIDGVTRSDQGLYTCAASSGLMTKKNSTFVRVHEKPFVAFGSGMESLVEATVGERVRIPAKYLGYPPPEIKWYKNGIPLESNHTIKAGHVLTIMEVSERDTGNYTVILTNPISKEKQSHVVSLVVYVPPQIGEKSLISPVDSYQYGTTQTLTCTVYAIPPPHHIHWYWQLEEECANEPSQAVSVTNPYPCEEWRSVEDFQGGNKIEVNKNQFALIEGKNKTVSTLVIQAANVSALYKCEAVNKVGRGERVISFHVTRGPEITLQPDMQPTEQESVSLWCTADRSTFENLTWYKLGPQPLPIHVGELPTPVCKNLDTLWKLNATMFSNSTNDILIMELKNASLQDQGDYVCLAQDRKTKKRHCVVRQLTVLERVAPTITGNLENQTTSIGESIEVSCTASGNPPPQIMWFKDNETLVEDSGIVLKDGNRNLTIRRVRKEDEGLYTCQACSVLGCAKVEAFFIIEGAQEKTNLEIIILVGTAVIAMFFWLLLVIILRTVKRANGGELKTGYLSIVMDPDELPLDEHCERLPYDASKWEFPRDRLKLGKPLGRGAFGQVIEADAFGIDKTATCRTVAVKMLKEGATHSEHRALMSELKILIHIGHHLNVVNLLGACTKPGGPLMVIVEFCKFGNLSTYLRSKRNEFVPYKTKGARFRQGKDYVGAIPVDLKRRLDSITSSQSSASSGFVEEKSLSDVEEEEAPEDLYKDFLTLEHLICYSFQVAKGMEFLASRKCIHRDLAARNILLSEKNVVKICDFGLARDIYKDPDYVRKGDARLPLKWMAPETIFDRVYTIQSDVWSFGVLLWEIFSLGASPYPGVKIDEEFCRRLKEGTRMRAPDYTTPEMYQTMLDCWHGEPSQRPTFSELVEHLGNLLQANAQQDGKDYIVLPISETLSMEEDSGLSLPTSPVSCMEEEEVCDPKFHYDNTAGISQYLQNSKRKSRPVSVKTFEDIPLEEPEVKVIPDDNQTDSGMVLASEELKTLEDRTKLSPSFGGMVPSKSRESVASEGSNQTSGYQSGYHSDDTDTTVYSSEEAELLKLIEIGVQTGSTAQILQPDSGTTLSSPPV
UniProt P08581, 25-1390: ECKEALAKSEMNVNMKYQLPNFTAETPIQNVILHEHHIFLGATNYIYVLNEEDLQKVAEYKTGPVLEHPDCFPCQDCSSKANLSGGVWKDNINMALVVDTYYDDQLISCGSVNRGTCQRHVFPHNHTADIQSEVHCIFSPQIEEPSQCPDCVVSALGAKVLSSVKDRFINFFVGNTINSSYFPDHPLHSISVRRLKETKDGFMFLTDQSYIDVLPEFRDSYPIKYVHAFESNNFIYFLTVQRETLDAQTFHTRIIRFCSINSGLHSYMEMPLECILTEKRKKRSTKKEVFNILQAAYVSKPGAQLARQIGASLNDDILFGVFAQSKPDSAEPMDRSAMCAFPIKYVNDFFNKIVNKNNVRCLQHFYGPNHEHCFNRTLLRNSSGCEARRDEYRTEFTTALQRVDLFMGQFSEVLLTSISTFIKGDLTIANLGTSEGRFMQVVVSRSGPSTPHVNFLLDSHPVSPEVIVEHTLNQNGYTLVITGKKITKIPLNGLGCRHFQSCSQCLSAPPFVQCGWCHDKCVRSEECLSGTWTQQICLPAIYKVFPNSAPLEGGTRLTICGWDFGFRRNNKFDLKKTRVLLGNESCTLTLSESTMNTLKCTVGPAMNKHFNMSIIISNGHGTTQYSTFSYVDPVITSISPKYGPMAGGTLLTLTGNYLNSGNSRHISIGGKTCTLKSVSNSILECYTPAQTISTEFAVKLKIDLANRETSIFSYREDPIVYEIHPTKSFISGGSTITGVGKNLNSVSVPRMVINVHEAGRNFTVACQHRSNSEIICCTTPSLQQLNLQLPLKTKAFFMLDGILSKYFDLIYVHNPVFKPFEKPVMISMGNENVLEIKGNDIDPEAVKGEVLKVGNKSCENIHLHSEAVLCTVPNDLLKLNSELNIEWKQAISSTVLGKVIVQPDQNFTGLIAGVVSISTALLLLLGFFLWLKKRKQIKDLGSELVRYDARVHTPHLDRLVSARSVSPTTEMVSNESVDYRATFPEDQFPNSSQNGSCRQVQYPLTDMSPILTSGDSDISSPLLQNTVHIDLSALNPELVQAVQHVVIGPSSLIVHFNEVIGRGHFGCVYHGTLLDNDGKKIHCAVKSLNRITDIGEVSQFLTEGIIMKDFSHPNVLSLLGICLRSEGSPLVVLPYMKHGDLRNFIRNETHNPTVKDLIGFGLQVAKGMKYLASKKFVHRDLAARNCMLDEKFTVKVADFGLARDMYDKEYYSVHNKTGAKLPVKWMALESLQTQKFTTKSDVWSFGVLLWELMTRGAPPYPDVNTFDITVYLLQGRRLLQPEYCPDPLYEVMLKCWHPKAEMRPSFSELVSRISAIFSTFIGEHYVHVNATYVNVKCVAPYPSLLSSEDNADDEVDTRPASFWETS

Sequence	binding result [1]	binding result [2]	binding result [3]	binding result [4]	binding result [5]	binding result [6]
CCGGCTGCTGCGGCATCGGGCTAGATATCGAT [SAPT8]	binds	binds	binds	no binding	no binding	no binding
GGAATTCCCGGTGCGCCGATCGCCGGATATAACTT [NC]			no binding			

Source: doi:10.1101/2025.08.29.672993
